PubChem BioAssay AID1508597 | Cure First, 2020
Purpose: 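Knock-downs altering ovarian cancer cell survival with or without PARP inhibitor rucaparib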 (primary screen). Cells: human ovarian carcinoma lines grown from tumours: OCI-P5x (papillary serous) and OCI-C5x (clear cell). Knock-down reagent: siRNA pool against human genes, 1.25 pmol siRNA per well. Timing: 72 h or 96 h, depending on the cell culture. Challenge: rucaparib 20 µM (about IC30) or vehicle, present until read-out. Measurement: 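Luminescent ATP-based viability assay read 72 or 96 h after transfection, depending on culture, given as normalised percent viability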. Direction: viability, normalised: higher = more viable cells remaining. Call rule: 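a well counts as a hit if its normalised viability is under 80 percent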. Meaning of the calls: active = viability under 80%; inactive = viability 80% or more.
The deposit covers about 2,100 reagents; below is a part drawn at random. 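Calls flag viability under 80% in either arm, not effects specific to rucaparib; the reference for percent is not stated.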 Reagent sequences are not shown. Not given: the 100% reference.

gene symbol | rucaparib or vehicle | cell line | technical replicate | viability, normalised (%) | Call
CHD6 | Rucaparib | OCI-C5x (clear cell) | 1 | 73.5 | active
CHD6 | Rucaparib | OCI-C5x (clear cell) | 2 | 58.8 | active
CHD6 | Rucaparib | OCI-C5x (clear cell) | 3 | 55.5 | active
CHD6 | Rucaparib | OCI-P5x (serous) | 1 | 65 | active
CHD6 | Rucaparib | OCI-P5x (serous) | 2 | 62.7 | active
CHD6 | Rucaparib | OCI-P5x (serous) | 3 | 78.4 | active
CHD6 | Vehicle | OCI-C5x (clear cell) | 1 | 30.2 | active
CHD6 | Vehicle | OCI-C5x (clear cell) | 2 | 55.2 | active
CHD6 | Vehicle | OCI-C5x (clear cell) | 3 | 41.7 | active
CHD6 | Vehicle | OCI-P5x (serous) | 1 | 63.7 | active
CHD6 | Vehicle | OCI-P5x (serous) | 2 | 89.5 | inactive
CHD6 | Vehicle | OCI-P5x (serous) | 3 | 82 | inactive
TRMT6 | Rucaparib | OCI-C5x (clear cell) | 1 | 47.6 | active
TRMT6 | Rucaparib | OCI-C5x (clear cell) | 2 | 65.7 | active
TRMT6 | Rucaparib | OCI-C5x (clear cell) | 3 | 71.7 | active
TRMT6 | Rucaparib | OCI-P5x (serous) | 1 | 95.8 | inactive
TRMT6 | Rucaparib | OCI-P5x (serous) | 2 | 82.2 | inactive
TRMT6 | Rucaparib | OCI-P5x (serous) | 3 | 80.7 | inactive
TRMT6 | Vehicle | OCI-C5x (clear cell) | 1 | 83.3 | inactive
TRMT6 | Vehicle | OCI-C5x (clear cell) | 2 | 93.2 | inactive
TRMT6 | Vehicle | OCI-C5x (clear cell) | 3 | 83.3 | inactive
TRMT6 | Vehicle | OCI-P5x (serous) | 1 | 72.2 | active
TRMT6 | Vehicle | OCI-P5x (serous) | 2 | 67.3 | active
TRMT6 | Vehicle | OCI-P5x (serous) | 3 | 95.5 | inactive

Laid out differently: entries from further up
{"gene symbol": "TRMT6", "rucaparib or vehicle": "Vehicle", "cell line": "OCI-C5x (clear cell)", "technical replicate": "2", "viability, normalised (%)": 93.2, "Call": "inactive"}
{"gene symbol": "TRMT6", "rucaparib or vehicle": "Vehicle", "cell line": "OCI-C5x (clear cell)", "technical replicate": "3", "viability, normalised (%)": 83.3, "Call": "inactive"}
{"gene symbol": "TRMT6", "rucaparib or vehicle": "Vehicle", "cell line": "OCI-P5x (serous)", "technical replicate": "1", "viability, normalised (%)": 72.2, "Call": "active"}
